Results on six substances are retold here after US20100136034A1 (CENTRE NATIONAL DE LA RECHERCHE SCIENTIFIQUE, priority 2007, published 2010).

Series [1] in a line: general procedure: Fmoc solid-phase peptide synthesis; 2-chlorotrityl chloride resin; BOP/HOBt/DIEA. To be noted: TFA salt; for crude HPLC purity: C18 RP-HPLC.
The nature of series [2]: general procedure: Fmoc solid-phase peptide synthesis; 2-chlorotrityl chloride; BOP/HOBt/DIEA. To be noted: whole synthesis, TFA salt.

On to “Cyclo[(D)Ala-Lys(Boc)-(D)Lys(Acm)-Lys(Boc)-(D)Ala-Lys(Boc)]”, for which, in series [1] (cyclisation step), the “crude HPLC purity” value stood at 87% and the cyclisation yield turned out to be 77%.

As to “Cyclo[(D)Ala-Lys(Boc)-(D)Lys(Nps)-Lys(Boc)-(D)Ala-Lys(Boc)]”, in series [1] (cyclisation step), the “crude HPLC purity” value was 60% and the cyclisation yield is listed as 83%.

Consider “H-(D)Ala-Lys(Boc)-(D)Lys(Acm)-Lys(Boc)-(D)Ala-Lys(Boc)-OH”, for which, in series [2], the crude yield result is on record as “yield=100%”. Further, the “crude HPLC purity” value in series [1] (whole synthesis) is on record as 73%.

Turning to “H-(D)Ala-Lys(Boc)-(D)Lys(Nps)-Lys(Boc)-(D)Ala-Lys(Boc)-OH”, the crude yield result in series [2] is recorded as “yield: 100%”. For the same substance, the “crude HPLC purity” value in series [1] (whole synthesis) is on record as 60%.

With “cyclo[(D)Ala-Lys-(D)Lys(Nps)-Lys-(D)Ala-Lys]”, in series [1] (late stage modification step), the “crude HPLC purity” value is on record as 66% and the step yield was determined as 87%.

Take “cyclo[D)Ala-Lys-(D)Lys(Acm)-Lys-(D)Ala-Lys]”: in series [1] (late stage modification step), the “crude HPLC purity” value is 86% and the step yield stood at 85%.
